Assay results: paper PMC10618255, “Cryo-EM structure of human O-GlcNAcylation enzyme pair OGT-OGA complex” (Nature Communications, 2023)
No constants are given. Whether binding was seen depends on the method and setting. Binding seen in cells or lysates may run through a third protein. Some entries that bind do so weakly or less than the wild type. Where a sequence is shown, tags or fusion partners need not be part of it.

Target: T1, Myc-OGT WT (human, pCS2) (human) (UniProt O15294)
T1 sequence: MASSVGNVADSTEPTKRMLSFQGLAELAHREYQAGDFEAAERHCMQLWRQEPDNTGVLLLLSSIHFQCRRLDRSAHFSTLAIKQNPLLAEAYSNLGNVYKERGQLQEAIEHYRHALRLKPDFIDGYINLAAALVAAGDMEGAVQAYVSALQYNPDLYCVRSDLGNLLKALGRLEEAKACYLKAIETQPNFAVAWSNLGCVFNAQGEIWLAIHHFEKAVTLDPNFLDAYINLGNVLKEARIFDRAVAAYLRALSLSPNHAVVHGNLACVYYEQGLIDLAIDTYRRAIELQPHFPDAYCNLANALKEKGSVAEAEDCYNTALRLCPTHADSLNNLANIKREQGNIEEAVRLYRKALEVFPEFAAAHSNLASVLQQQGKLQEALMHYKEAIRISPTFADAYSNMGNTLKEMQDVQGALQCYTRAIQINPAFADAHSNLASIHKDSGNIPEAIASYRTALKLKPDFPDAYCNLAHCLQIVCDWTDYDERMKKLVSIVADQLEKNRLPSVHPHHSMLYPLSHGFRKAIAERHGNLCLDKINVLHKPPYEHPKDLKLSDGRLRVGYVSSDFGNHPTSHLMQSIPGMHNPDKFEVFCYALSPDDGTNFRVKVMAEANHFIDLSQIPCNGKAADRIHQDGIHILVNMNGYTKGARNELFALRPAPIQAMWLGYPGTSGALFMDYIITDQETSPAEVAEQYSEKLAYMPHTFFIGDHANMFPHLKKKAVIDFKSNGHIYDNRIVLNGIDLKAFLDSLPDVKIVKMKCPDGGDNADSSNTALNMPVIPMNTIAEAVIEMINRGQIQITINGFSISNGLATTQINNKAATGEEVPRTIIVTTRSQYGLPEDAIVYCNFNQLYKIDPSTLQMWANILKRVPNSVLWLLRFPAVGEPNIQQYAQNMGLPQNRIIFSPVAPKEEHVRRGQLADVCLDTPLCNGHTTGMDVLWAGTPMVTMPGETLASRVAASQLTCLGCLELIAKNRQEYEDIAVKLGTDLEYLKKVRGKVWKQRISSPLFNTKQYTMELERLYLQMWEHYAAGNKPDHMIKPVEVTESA
Assay: co-IP; 293FT cells co-transfected with pCS2-Myc-OGT WT or mutant and pCS2-Flag-OGA; lysate in TENT buffer (25 mM Tris pH 7.4, 150 mM NaCl, 0.5% TritonX100, 1 mM EDTA); anti-Myc and anti-Flag magnetic beads; western blot

binding: binds
B1: Flag-OGA (human, pCS2) (enzyme, UniProt O60502 1-916)
chain: MVQKESQATLEERESELSSNPAASAGASLEPPAAPAPGEDNPAGAGGAAVAGAAGGARRFLCGVVEGFYGRPWVMEQRKELFRRLQKWELNTYLYAPKDDYKHRMFWREMYSVEEAEQLMTLISAAREYEIEFIYAISPGLDITFSNPKEVSTLKRKLDQVSQFGCRSFALLFDDIDHNMCAADKEVFSSFAHAQVSITNEIYQYLGEPETFLFCPTEYCGTFCYPNVSQSPYLRTVGEKLLPGIEVLWTGPKVVSKEIPVESIEEVSKIIKRAPVIWDNIHANDYDQKRLFLGPYKGRSTELIPRLKGVLTNPNCEFEANYVAIHTLATWYKSNMNGVRKDVVMTDSEDSTVSIQIKLENEGSDEDIETDVLYSPQMALKLALTEWLQEFGVPHQYSSRQVAHSGAKASVVDGTPLVAAPSLNATTVVTTVYQEPIMSQGAALSGEPTTLTKEEEKKQPDEEPMDMVVEKQEETDHKNDNQILSEIVEAKMAEELKPMDTDKESIAESKSPEMSMQEDCISDIAPMQTDEQTNKEQFVPGPNEKPLYTAEPVTLEDLQLLADLFYLPYEHGPKGAQMLREFQWLRANSSVVSVNCKGKDSEKIEEWRSRAAKFEEMCGLVMGMFTRLSNCANRTILYDMYSYVWDIKSIMSMVKSFVQWLGCRSHSSAQFLIGDQEPWAFRGGLAGEFQRLLPIDGANDLFFQPPPLTPTSKVYTIRPYFPKDEASVYKICREMYDDGVGLPFQSQPDLIGDKLVGGLLSLSLDYCFVLEDEDGICGYALGTVDVTPFIKKCKISWIPFMQEKYTKPNGDKELSEAEKIMLSFHEEQEVLPETFLANFPSLIKMDIHKKVTDPSVAKSMMACLLSSLKANGSRGAFCEVRPDDKRILEFYSKLGCFEIAKMEGFPKDVVILGRSL
